Measured values reported in article PMC9287327.
These are yes or no findings as the source states them, for the method shown. For part of these data: Binding seen in cells or lysates may run through a third protein. Some entries that bind do so weakly or less than the wild type. Where a sequence is shown, tags or fusion partners need not be part of it.

By UniProt entry, the sequences of proteins in these tests, tags left out. Residues count along the entry.
UniProt Q16620, residues 32-822: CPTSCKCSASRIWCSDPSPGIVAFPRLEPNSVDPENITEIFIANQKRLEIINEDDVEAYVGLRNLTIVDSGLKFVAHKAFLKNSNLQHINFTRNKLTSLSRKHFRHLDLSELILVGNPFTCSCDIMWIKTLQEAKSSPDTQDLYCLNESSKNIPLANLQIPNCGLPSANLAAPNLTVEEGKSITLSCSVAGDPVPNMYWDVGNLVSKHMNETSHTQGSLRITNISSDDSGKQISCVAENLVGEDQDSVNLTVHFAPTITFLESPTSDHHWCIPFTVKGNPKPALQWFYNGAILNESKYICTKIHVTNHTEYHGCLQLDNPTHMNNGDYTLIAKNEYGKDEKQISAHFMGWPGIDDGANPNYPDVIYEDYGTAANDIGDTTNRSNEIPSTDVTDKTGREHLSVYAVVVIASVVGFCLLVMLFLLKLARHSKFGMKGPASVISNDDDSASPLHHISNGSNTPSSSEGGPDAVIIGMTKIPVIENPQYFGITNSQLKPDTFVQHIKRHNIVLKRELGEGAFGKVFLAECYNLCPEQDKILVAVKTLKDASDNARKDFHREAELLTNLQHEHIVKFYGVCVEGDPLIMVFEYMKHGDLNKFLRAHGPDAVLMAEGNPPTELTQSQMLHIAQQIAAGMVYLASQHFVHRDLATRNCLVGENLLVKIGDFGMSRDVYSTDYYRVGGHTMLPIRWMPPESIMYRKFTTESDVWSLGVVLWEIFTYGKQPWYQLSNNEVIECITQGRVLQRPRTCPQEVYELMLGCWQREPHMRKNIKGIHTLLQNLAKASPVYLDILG

T1: HA-tagged full-length SLITRK2 wild-type (human) (UniProt Q9H156)
T1 sequence: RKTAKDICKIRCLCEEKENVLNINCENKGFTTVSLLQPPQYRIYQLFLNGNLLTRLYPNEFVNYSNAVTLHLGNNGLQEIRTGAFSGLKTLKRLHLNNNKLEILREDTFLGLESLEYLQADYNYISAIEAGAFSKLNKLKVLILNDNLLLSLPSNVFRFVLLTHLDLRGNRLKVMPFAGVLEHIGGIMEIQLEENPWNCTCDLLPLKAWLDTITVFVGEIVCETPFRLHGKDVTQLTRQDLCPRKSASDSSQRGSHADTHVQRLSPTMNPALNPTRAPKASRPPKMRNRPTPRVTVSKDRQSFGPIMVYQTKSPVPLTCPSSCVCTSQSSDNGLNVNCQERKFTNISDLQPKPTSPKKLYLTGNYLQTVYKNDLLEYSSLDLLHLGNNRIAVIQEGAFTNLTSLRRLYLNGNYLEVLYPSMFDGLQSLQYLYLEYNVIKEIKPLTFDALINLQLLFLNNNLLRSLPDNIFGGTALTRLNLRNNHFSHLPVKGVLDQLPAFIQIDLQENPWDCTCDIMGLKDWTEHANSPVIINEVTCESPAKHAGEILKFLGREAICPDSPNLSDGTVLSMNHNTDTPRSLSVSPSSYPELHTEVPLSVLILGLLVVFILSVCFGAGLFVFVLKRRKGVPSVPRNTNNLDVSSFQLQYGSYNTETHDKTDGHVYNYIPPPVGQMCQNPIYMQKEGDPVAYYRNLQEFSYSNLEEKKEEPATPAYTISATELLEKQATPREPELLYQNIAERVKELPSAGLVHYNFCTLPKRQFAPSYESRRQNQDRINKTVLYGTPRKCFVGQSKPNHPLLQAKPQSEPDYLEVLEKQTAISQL

T2: HA-tagged SLITRK2 T312A variant (human) (UniProt Q9H156)
T2 sequence: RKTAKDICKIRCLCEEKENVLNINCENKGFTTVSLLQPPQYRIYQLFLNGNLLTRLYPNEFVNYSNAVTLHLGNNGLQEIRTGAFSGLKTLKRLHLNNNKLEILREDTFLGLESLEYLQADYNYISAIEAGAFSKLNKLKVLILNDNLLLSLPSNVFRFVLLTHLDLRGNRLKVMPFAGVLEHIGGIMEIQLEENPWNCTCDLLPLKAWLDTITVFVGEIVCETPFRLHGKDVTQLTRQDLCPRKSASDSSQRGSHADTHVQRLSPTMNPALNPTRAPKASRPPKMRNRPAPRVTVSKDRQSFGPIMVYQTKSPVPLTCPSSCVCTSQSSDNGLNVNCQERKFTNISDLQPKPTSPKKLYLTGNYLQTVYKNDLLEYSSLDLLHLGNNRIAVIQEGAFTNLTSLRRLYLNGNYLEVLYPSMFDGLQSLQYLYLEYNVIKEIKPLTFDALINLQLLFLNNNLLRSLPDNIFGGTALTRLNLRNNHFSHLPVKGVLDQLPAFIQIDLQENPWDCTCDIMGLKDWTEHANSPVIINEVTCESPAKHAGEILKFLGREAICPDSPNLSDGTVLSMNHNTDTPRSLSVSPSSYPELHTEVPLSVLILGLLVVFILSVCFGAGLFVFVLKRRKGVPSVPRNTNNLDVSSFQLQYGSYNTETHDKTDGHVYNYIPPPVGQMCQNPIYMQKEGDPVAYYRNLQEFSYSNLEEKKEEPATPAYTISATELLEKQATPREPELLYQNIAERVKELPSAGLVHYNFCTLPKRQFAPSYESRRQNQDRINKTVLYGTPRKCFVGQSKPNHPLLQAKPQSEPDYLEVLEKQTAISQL


Tests used:
[1] = molecular target: T1, HA-tagged full-length SLITRK2 wild-type (human); test: cell-surface binding assay; HEK293T cells expressing HA-SLITRK2 or its variants incubated with 10 µg/ml purified PTPδ Fc-fusion protein or IgC alone; confocal microscopy; only the binder purified
[2] = molecular target: T2, HA-tagged SLITRK2 T312A variant (human); test: as above
[3] = molecular target: receptor tyrosine kinase TrkB (UniProt Q16620); test: co-IP; coimmunoprecipitation assays in HEK293T cells

binding [1] | binding [2] | binding [3] | Binder
binds | binds |  | recombinant Ig-fusion protein of PTPδ (Fc fusion, UniProt P23468 21-1265) ETPPRFTRTPVDQTGVSGGVASFICQATGDPRPKIVWNKKGKKVSNQRFEVIEFDDGSGSVLRIQPLRTPRDEAIYECVASNNVGEISVSTRLTVLREDQIPRGFPTIDMGPQLKVVERTRTATMLCAASGNPDPEITWFKDFLPVDTSNNNGRIKQLRSESIGGTPIRGALQIEQSEESDQGKYECVATNSAGTRYSAPANLYVRELREVRRVPPRFSIPPTNHEIMPGGSVNITCVAVGSPMPYVKWMLGAEDLTPEDDMPIGRNVLELNDVRQSANYTCVAMSTLGVIEAIAQITVKALPKPPGTPVVTESTATSITLTWDSGNPEPVSYYIIQHKPKNSEELYKEIDGVATTRYSVAGLSPYSDYEFRVVAVNNIGRGPPSEPVLTQTSEQAPSSAPRDVQARMLSSTTILVQWKEPEEPNGQIQGYRVYYTMDPTQHVNNWMKHNVADSQITTIGNLVPQKTYSVKVLAFTSIGDGPLSSDIQVITQTGVPGQPLNFKAEPESETSILLSWTPPRSDTIANYELVYKDGEHGEEQRITIEPGTSYRLQGLKPNSLYYFRLAARSPQGLGASTAEISARTMQSKPSAPPQDISCTSPSSTSILVSWQPPPVEKQNGIITEYSIKYTAVDGEDDKPHEILGIPSDTTKYLLEQLEKWTEYRITVTAHTDVGPGPESLSVLIRTNEDVPSGPPRKVEVEAVNSTSVKVSWRSPVPNKQHGQIRGYQVHYVRMENGEPKGQPMLKDVMLADAQWEFDDTTEHDMIISGLQPETSYSLTVTAYTTKGDGARSKPKLVSTTGAVPGKPRLVINHTQMNTALIQWHPPVDTFGPLQGYRLKFGRKDMEPLTTLEFSEKEDHFTATDIHKGASYVFRLSARNKVGFGEEMVKEISIPEEVPTGFPQNLHSEGTTSTSVQLSWQPPVLAERNGIITKYTLLYRDINIPLLPMEQLIVPADTTMTLTGLKPDTTYDVKVRAHTSKGPGPYSPSVQFRTLPVDQVFAKNFHVKAVMKTSVLLSWEIPENYNSAMPFKILYDDGKMVEEVDGRATQKLIVNLKPEKSYSFVLTNRGNSAGGLQHRVTAKTAPDVLRTKPAFIGKTNLDGMITVQLPEVPANENIKGYYIIIVPLKKSRGKFIKPWESPDEMELDELLKEISRKRRSIRYGREVELKPYIAAHFDVLPTEFTLGDDKHYGGFTNKQLQSGQEYVFFVLAVMEHAESKMYATSPYSDPVVSMDLDPQPITDEEE
 |  | binds | HA-tagged full-length SLITRK2 wild-type (protein, UniProt Q9H156 22-845) RKTAKDICKIRCLCEEKENVLNINCENKGFTTVSLLQPPQYRIYQLFLNGNLLTRLYPNEFVNYSNAVTLHLGNNGLQEIRTGAFSGLKTLKRLHLNNNKLEILREDTFLGLESLEYLQADYNYISAIEAGAFSKLNKLKVLILNDNLLLSLPSNVFRFVLLTHLDLRGNRLKVMPFAGVLEHIGGIMEIQLEENPWNCTCDLLPLKAWLDTITVFVGEIVCETPFRLHGKDVTQLTRQDLCPRKSASDSSQRGSHADTHVQRLSPTMNPALNPTRAPKASRPPKMRNRPTPRVTVSKDRQSFGPIMVYQTKSPVPLTCPSSCVCTSQSSDNGLNVNCQERKFTNISDLQPKPTSPKKLYLTGNYLQTVYKNDLLEYSSLDLLHLGNNRIAVIQEGAFTNLTSLRRLYLNGNYLEVLYPSMFDGLQSLQYLYLEYNVIKEIKPLTFDALINLQLLFLNNNLLRSLPDNIFGGTALTRLNLRNNHFSHLPVKGVLDQLPAFIQIDLQENPWDCTCDIMGLKDWTEHANSPVIINEVTCESPAKHAGEILKFLGREAICPDSPNLSDGTVLSMNHNTDTPRSLSVSPSSYPELHTEVPLSVLILGLLVVFILSVCFGAGLFVFVLKRRKGVPSVPRNTNNLDVSSFQLQYGSYNTETHDKTDGHVYNYIPPPVGQMCQNPIYMQKEGDPVAYYRNLQEFSYSNLEEKKEEPATPAYTISATELLEKQATPREPELLYQNIAERVKELPSAGLVHYNFCTLPKRQFAPSYESRRQNQDRINKTVLYGTPRKCFVGQSKPNHPLLQAKPQSEPDYLEVLEKQTAISQL
